Source: the supplement of paper PMC12542422
Counter-ions that a name gives are not always drawn. ± gives the standard deviation of the averaged measurements. The list shows a part of the results. These are raw signals, not scaled to a control.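 Ribosome-assembly readouts in HeLa cells were imaged via ENP1 staining, with or without export block, or inducible tagged ribosomal protein reporters. Machine learning classified per-cell signal location versus solvent (DMSO) controls. Hits surpassed the DMSO false-positive mean by five standard deviations and were visually confirmed; three biological replicates.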

Assays:
[1] = system: HeLa K (ENP1 immunofluorescence, +LMB); experiment: fraction of cells with nucleolar or nucleolar/nucleoplasmic ENP1 signal (MainHitrate); higher = more cells with nucleolar/nuclear readout signal (for ENP1 -LMB: less RNAPI inhibition; for +LMB ENP1 and RP reporters: stronger nuclear/nucleolar retention, i.e. ribosome biogenesis defect); conditions: concentration: 1 µM; treatment time: 6 h; ENP1 +LMB; leptomycin B: 20 nM, last 1.5 h
[2] = system: HeLa K (ENP1 immunofluorescence, no LMB); experiment: as above; conditions: concentration: 1 µM; treatment time: 6 h; ENP1 -LMB; leptomycin B: none
[3] = system: HeLa RPS2-YFP reporter; experiment: fraction of reporter-positive cells with nuclear (nucleolar or nucleolar/nucleoplasmic) RPS2-YFP (MainHitrate); higher = more cells with nucleolar/nuclear readout signal (for ENP1 -LMB: less RNAPI inhibition; for +LMB ENP1 and RP reporters: stronger nuclear/nucleolar retention, i.e. ribosome biogenesis defect); conditions: concentration: 1 µM; treatment time: 6 h
[4] = system: HeLa RPL29-GFP reporter; experiment: fraction of reporter-positive cells with nuclear (nucleolar or nucleolar/nucleoplasmic) RPL29-GFP (MainHitrate); higher = more cells with nucleolar/nuclear readout signal (for ENP1 -LMB: less RNAPI inhibition; for +LMB ENP1 and RP reporters: stronger nuclear/nucleolar retention, i.e. ribosome biogenesis defect); conditions: concentration: 1 µM; treatment time: 6 h

SMILES	fraction [1]	fraction [2]	fraction of reporter-positive cells with nuclear [3]	fraction of reporter-positive cells with nuclear [4]
O[C@@H]1CO[C@H]2[C@@H]1OC[C@@H]2O [Isosorbide]	0.0488 ± 0.064	0.9965 ± 0.006	0.127 ± 0.11	0.204 ± 0.043
CN1C(C(=O)Nc2ccccn2)=C(O)c2sc(Cl)cc2S1(=O)=O [Lornoxicam (Xefo)]	0.166 ± 0.25	0.99 ± 0.017	0.1 ± 0.052	0.234 ± 0.094
COc1ccc(CN(CCN(C)C)c2ccccn2)cc1 [Pyrilamine Maleate]	0.23 ± 0.32	0.995 ± 0.0087	0.202 ± 0.15	0.298 ± 0.2
CCOC(=O)n1ccn(C)c1=S [Carbimazole]	0.0604 ± 0.072	0.9947 ± 0.0091	0.103 ± 0.1	0.205 ± 0.075
[O-][n+]1cccc(CO)c1 [Mepiroxol]	0.0795 ± 0.089	0.997 ± 0.0052	0.172 ± 0.16	0.291 ± 0.19
Cc1cnc(C(=O)NCCc2ccc(S(=O)(=O)NC(=O)NC3CCCCC3)cc2)cn1 [Glipizide (Glucotrol)]	0.121 ± 0.14	0.998 ± 0.0034	0.106 ± 0.07	0.218 ± 0.056
CCN(CC)CC#CCOC(=O)C(O)(c1ccccc1)C1CCCCC1 (configuration not stated) [Oxybutynin chloride]	0.11 ± 0.14	0.9984 ± 0.0028	0.124 ± 0.091	0.192 ± 0.063
Cc1c(C(=O)NN2CCCCC2)nn(-c2ccc(Cl)cc2Cl)c1-c1ccc(Cl)cc1	0.0854 ± 0.12	0.974 ± 0.045	0.142 ± 0.11	0.192 ± 0.025
CCC1=C(C)CN(C(=O)NCCc2ccc(S(=O)(=O)NC(=O)N[C@H]3CC[C@H](C)CC3)cc2)C1=O [Glimepiride]	0.0788 ± 0.058	0.9977 ± 0.004	0.0606 ± 0.014	0.207 ± 0.037
Cc1ccc(-c2cc(C(F)(F)F)nn2-c2ccc(S(N)(=O)=O)cc2)cc1 [Celecoxib]	0.125 ± 0.16	0.9986 ± 0.0024	0.101 ± 0.074	0.201 ± 0.076
C[N+](C)(CCOc1ccccc1)Cc1ccccc1.O=C([O-])c1cc2ccccc2cc1O [Bephenium Hydroxynaphthoate]	0.124 ± 0.14	0.997 ± 0.0053	0.17 ± 0.13	0.299 ± 0.29
CC12CC3CC(C)(C1)CC(N)(C3)C2 [Memantine HCl (Namenda)]	0.113 ± 0.15	0.99 ± 0.018	0.119 ± 0.049	0.221 ± 0.044
CNC(=O)CN(CCN(CCN(CC(=O)O)CC(=O)NC)CC(=O)O)CC(=O)O.O.[Gd] [Gadodiamide (Omniscan)]	0.0803 ± 0.085	0.9985 ± 0.0026	0.124 ± 0.082	0.211 ± 0.068
CCCCOc1ccc(CC(=O)NO)cc1 [Bufexamac]	0.0946 ± 0.13	0.99 ± 0.018	0.114 ± 0.095	0.228 ± 0.07
COc1ccc2c(c1)C(=O)N(CCc1ccc(S(=O)(=O)NC(=O)NC3CCCCC3)cc1)C(=O)C2(C)C [Gliquidone]	0.122 ± 0.18	0.973 ± 0.046	0.132 ± 0.098	0.225 ± 0.055
Cl.N=C(N)NCCC[C@H](N)C(=O)O [L-Arginine HCl]	0.083 ± 0.1	0.987 ± 0.022	0.134 ± 0.093	0.21 ± 0.049
O=C(O)c1cn(C2CC2)c2cc(N3CCNCC3)c(F)cc2c1=O [Ciprofloxacin (Cipro)]	0.155 ± 0.22	0.9952 ± 0.0083	0.109 ± 0.056	0.242 ± 0.086
CN(C)[C@@H]1C(O)=C(C(N)=O)C(=O)[C@@]2(O)C(O)=C3C(=O)c4c(O)ccc(Cl)c4[C@@](C)(O)[C@H]3C[C@@H]12 [Chlortetracycline HCl]	0.0539 ± 0.068	0.988 ± 0.021	0.0956 ± 0.094	0.27 ± 0.015
CN(C)CCOc1ccc(/C(=C(/CCCl)c2ccccc2)c2ccccc2)cc1 [Toremifene Citrate (Fareston, Acapodene)]	0.103 ± 0.12	0.9993 ± 0.0012	0.128 ± 0.097	0.206 ± 0.073
Nc1ccn(C[C@@H](CO)OCP(=O)(O)O)c(=O)n1 [Cidofovir (Vistide)]	0.068 ± 0.048	0.9973 ± 0.0046	0.103 ± 0.082	0.242 ± 0.062
CC[C@H]1OC(=O)[C@H](C)[C@@H](O[C@H]2C[C@@](C)(OC)[C@@H](O)[C@H](C)O2)[C@H](C)[C@@H](O[C@@H]2O[C@H](C)C[C@H](N(C)C)[C@H]2O)[C@](C)(OC)C[C@@H](C)C(=O)[C@H](C)[C@@H](O)[C@]1(C)O [Clarithromycin (Biaxin, Klacid)]	0.153 ± 0.23	0.993 ± 0.012	0.119 ± 0.071	0.217 ± 0.092
CCOC(=O)C1=C[C@@H](OC(CC)CC)[C@H](NC(C)=O)[C@@H](N)C1 [Oseltamivir phosphate (Tamiflu)]	0.067 ± 0.087	0.986 ± 0.025	0.107 ± 0.058	0.204 ± 0.046
C#C[C@]1(O)CC[C@H]2[C@@H]3CCC4=CC(=O)CC[C@@H]4[C@H]3CC[C@@]21C [norethindrone]	0.0473 ± 0.057	0.988 ± 0.021	0.164 ± 0.15	0.209 ± 0.021
CNS(=O)(=O)CCc1ccc2[nH]cc(C3CCN(C)CC3)c2c1 [Naratriptan HCl]	0.0523 ± 0.025	0.9987 ± 0.0022	0.102 ± 0.063	0.176 ± 0.034
O=c1n(CCCN2CCN(c3cccc(Cl)c3)CC2)nc2ccccn12 [Trazodone hydrochloride (Desyrel)]	0.044 ± 0.036	0.994 ± 0.01	0.0916 ± 0.097	0.237 ± 0.04
Cc1ncc([N+](=O)[O-])n1CC(O)CCl (configuration not stated) [Ornidazole]	0.0621 ± 0.078	0.984 ± 0.027	0.104 ± 0.083	0.213 ± 0.087
CC1(C)O[C@@H]2C[C@H]3[C@@H]4CCC5=CC(=O)C=C[C@]5(C)[C@H]4[C@@H](O)C[C@]3(C)[C@]2(C(=O)CO)O1 [Desonide]	0.0619 ± 0.045	0.9985 ± 0.0027	0.147 ± 0.1	0.271 ± 0.054
O=C1NC(=O)C(c2ccccc2)(c2ccccc2)N1 [Phenytoin (Lepitoin)]	0.168 ± 0.26	0.9957 ± 0.0075	0.071 ± 0.042	0.218 ± 0.061

Whole records from above. Order of values: fraction [1] | fraction [2] | fraction of reporter-positive cells with nuclear [3] | fraction of reporter-positive cells with nuclear [4]
Cc1ncc([N+](=O)[O-])n1CC(O)CCl (configuration not stated) [Ornidazole] as listed: 0.0621 ± 0.078 | 0.984 ± 0.027 | 0.104 ± 0.083 | 0.213 ± 0.087
CCOC(=O)C1=C[C@@H](OC(CC)CC)[C@H](NC(C)=O)[C@@H](N)C1 [Oseltamivir phosphate (Tamiflu)] as listed: 0.067 ± 0.087 | 0.986 ± 0.025 | 0.107 ± 0.058 | 0.204 ± 0.046
